According to paper PMC4964526:
These are yes or no findings as the source states them, for the method shown. In cells and extracts the contact can be indirect. A result given as binding can be weak or reduced; the word gives no strength. Sequences can lack the tags named with a protein.

Key:
Experiment in all cases: split reporter; split YFP; OsCYP19-4 isoforms in pSPYNE-35S, AtRCN1 in pSPYCE-35S; co-expressed with P19 in N. benthamiana leaves by agroinfiltration; YFP fluorescence 48 h post-infiltration, confocal microscopy
[1] = biological target: OsCYP19-4.2 split-YFP fusion (4.2-NE) for BiFC (Oryza sativa)
[2] = biological target: OsCYP19-4.3 split-YFP fusion (4.3-NE) for BiFC (Oryza sativa)
[3] = biological target: OsCYP19-4.1 split-YFP fusion (4.1-NE) for BiFC (Oryza sativa)

binding [1]: binds
binding [2]: binds
binding [3]: binds
B1: AtRCN1 split-YFP fusion (AtRCN1-CE) for BiFC (protein, UniProt Q38845 1-588)
chain: MAMVDEPLYPIAVLIDELKNDDIQLRLNSIRRLSTIARALGEERTRKELIPFLSENSDDDDEVLLAMAEELGVFIPFVGGIEFAHVLLPPLESLCTVEETCVREKAVESLCKIGSQMKENDLVESFVPLVKRLAGGEWFAARVSACGIFHVAYQGCTDVLKTELRATYSQLCKDDMPMVRRAAASNLGKFATTVESTFLIAEIMTMFDDLTKDDQDSVRLLAVEGCAALGKLLEPQDCVARILPVIVNFSQDKSWRVRYMVANQLYELCEAVGPDCTRTDLVPAYVRLLRDNEAEVRIAAAGKVTKFCRLLNPELAIQHILPCVKELSSDSSQHVRSALASVIMGMAPILGKDSTIEHLLPIFLSLLKDEFPDVRLNIISKLDQVNQVIGIDLLSQSLLPAIVELAEDRHWRVRLAIIEYVPLLASQLGIGFFDDKLGALCMQWLQDKVYSIREAAANNLKRLAEEFGPEWAMQHLVPQVLDMVNNPHYLHRMMVLRAISLMAPVMGSEITCSKFLPVVVEASKDRVPNIKFNVAKLLQSLIPIVDQSVVDKTIRQCLVDLSEDPDVDVRYFANQALNSIDGSTAAQS
